In PMC7819943, “Rice protein-binding microarrays: a tool to detect cis-acting elements near promoter regions in rice” one finds binding signal data, which are given here for 42 sequences.

Chains of the proteins cited; added tags and fusions are not shown.
UniProt Q0JBA9, entry or part of it: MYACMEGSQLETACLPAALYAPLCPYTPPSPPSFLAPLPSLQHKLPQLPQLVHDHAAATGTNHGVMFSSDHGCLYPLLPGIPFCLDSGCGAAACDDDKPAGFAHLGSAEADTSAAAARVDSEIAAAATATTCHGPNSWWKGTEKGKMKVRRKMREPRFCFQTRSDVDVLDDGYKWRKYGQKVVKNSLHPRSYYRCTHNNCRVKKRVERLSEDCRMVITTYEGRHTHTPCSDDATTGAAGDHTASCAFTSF

Some of the results follow.

For the assay, the target named is OsWRKY34 (Oryza sativa, UniProt Q0JBA9 1-250). Briefly: protein-binding microarray (RPBM); PBS, 2% BSA, 51.3 ng/ul salmon testes DNA, 50 uM zinc acetate, 200 nM TF, 25 C, 1 h; high values mean tight binding. The following applies: protein: recombinant; tags: N-terminal polyhistidine and DsRed monomer fusion (pET32a); label: CyDye5-dUTP incorporated in the synthesized complementary strand; 3' TTTTT single-stranded linker to array surface; dsDNA, one strand shown. The procedure, abridged:
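Binding signal is reported as fluorescence intensity per feature (arbitrary units) from an Axon 4000B scanner. Incubation used 200 nM of each Ni–NTA-purified, N-terminally polyhistidine- and DsRed-fused transcription factor from E. coli BL21-CodonPlus on a double-stranded custom Agilent array for 1 h at 25 °C, with 50 µM zinc acetate in the buffer, followed by washing.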
“TTAGTTCAGTCACCAATTTGTTACCTCTTAGGATGCTTCTCGGAGTCACCTAGTGCAG”: the binding signal is 8620 fluorescence intensity (a.u.).

Turning to “ACATGGGACCCACCACCAAACTTTTTTTTCACGTGGGCCCCGGAGTCACCTAGTGCAG”, the binding signal was 11300 fluorescence intensity (a.u.).

For “ATCGTCCACTGATTCCTTCTTCATTCCGCTACATCGATCTCGGAGTCACCTAGTGCAG”, the binding signal was 8710 fluorescence intensity (a.u.).

“AAATCGCCCGGACTGTCAATATTTTCTGCGGCTAATAAAACGGAGTCACCTAGTGCAG”: the binding signal is 9060 fluorescence intensity (a.u.).

As to “AAAACGCCCAATACGTACACCGCGCCCGCGTCACGTCACCCGGAGTCACCTAGTGCAG”, the binding signal is 8390 fluorescence intensity (a.u.).

With “TCTGCAAATTAATAATTGAGCCGTCCATTTCACCATTAGACGGAGTCACCTAGTGCAG”, the binding signal was 13400 fluorescence intensity (a.u.).

Take “TTTGCGTATTTTTATTGATTCCTCATTTGCATTTTTCAGTCGGAGTCACCTAGTGCAG”: the binding signal was 11700 fluorescence intensity (a.u.).

“GTACCAATTTCACTCATCCATTCCTGATGTCAATTAACTGCGGAGTCACCTAGTGCAG”: the binding signal was 10200 fluorescence intensity (a.u.).

“TCACCATGCCACCTCAACTTTCACCATTAAACAAGAAAACCGGAGTCACCTAGTGCAG”: the binding signal was 8460 fluorescence intensity (a.u.).

Consider “CGTTCCTATCAAATTCCTTTGTTTTTCTCATTCCTTCATTCGGAGTCACCTAGTGCAG”, for which the binding signal was 8040 fluorescence intensity (a.u.).

In the case of “TACACCTCTAATTATCCGCTTCACATGCTCGCTCTCTTCTCGGAGTCACCTAGTGCAG”, the binding signal is 10400 fluorescence intensity (a.u.).

Take “GGTCATGCTTTGCTCCGCCCACATGTCCCTACTGGCTGCTCGGAGTCACCTAGTGCAG”: the binding signal is 9170 fluorescence intensity (a.u.).

Regarding “GTCGTCGTCCTCTTGTGATCTTGTTTTCCCGGCGTCGTGACGGAGTCACCTAGTGCAG”, the binding signal was 13900 fluorescence intensity (a.u.).

On to “ATTTTTTTTCCCTTGCATCATATACTCCGTATCAAATTATCGGAGTCACCTAGTGCAG”, for which the binding signal was 8210 fluorescence intensity (a.u.).

For “GGTCCAGCTTGTCCCATTGATCTCTCTTCACTGAAATCCACGGAGTCACCTAGTGCAG”, the binding signal is 10300 fluorescence intensity (a.u.).

For “CTTTTTGTGAGTTTCTTTTTCTTCACCTCCACTTCTTCCACGGAGTCACCTAGTGCAG”, the binding signal is 9260 fluorescence intensity (a.u.).

Consider “ATACTCGTACACTCGCCGAATAGCCGTGTTTTTTTTAGCCCGGAGTCACCTAGTGCAG”, for which the binding signal was 10600 fluorescence intensity (a.u.).

With “GTAGGGTTTACGTGCGTGCGTTGTGATTGTCTATGTTGTACGGAGTCACCTAGTGCAG”, the binding signal is 8360 fluorescence intensity (a.u.).

As to “CTAGATTCGTTTGTCATTGTTAACAATTTTTCGAGGAGCTCGGAGTCACCTAGTGCAG”, the binding signal is 9130 fluorescence intensity (a.u.).

For “TGCGTCTCGAAATATCCGGCTTTCTTGTTGTGCGATTTGGCGGAGTCACCTAGTGCAG”, the binding signal is 8960 fluorescence intensity (a.u.).

Turning to “ATAGGATGCATCTGTTCGCTTTTGCGGCTGCTGTTTTGCACGGAGTCACCTAGTGCAG”, the binding signal was 9350 fluorescence intensity (a.u.).

With “TACTACCCGTCGTCGTCGTCATCTTCTTCTTCCTGGTATTCGGAGTCACCTAGTGCAG”, the binding signal was 10000 fluorescence intensity (a.u.).

For the sequence “CGGTGGTGGTGGATGCTGGCGCTGGCGGTGGGCGCGAGCTCGGAGTCACCTAGTGCAG”, the binding signal is 10100 fluorescence intensity (a.u.).

For the sequence “ATAAGACGAATGGTCAAATATGTGAGAAAAAGTCAACGGCCGGAGTCACCTAGTGCAG”, the binding signal is 11100 fluorescence intensity (a.u.).

Turning to “GCAGTTGGTGACTTGGTTCGTTCCGCACACTCCACTCCACCGGAGTCACCTAGTGCAG”, the binding signal is 8260 fluorescence intensity (a.u.).

Regarding “GGGGATGGGGATTCGATGTGTCTATGCGTGGGCCCTGGTTCGGAGTCACCTAGTGCAG”, the binding signal was 11000 fluorescence intensity (a.u.).

Turning to “CTCGTTCGCGCTCTCTCTCTCTCTCTCTACAACATCTCTACGGAGTCACCTAGTGCAG”, the binding signal was 10300 fluorescence intensity (a.u.).

For “CACAACACCACAGCATGACCTTCGCGGCTTCGCCTATCATCGGAGTCACCTAGTGCAG”, the binding signal is 8520 fluorescence intensity (a.u.).

As for “CCAGTGAATTACATTTTTGCCCGATCCCGTCGCGAACTCCCGGAGTCACCTAGTGCAG”, the binding signal is 8750 fluorescence intensity (a.u.).

“TTTTCCTGTTGCAATCTACTGGGTATTTTTGCTAGTAAGACGGAGTCACCTAGTGCAG”: the binding signal is 8140 fluorescence intensity (a.u.).

As for “CCTCACAATTCTCTTCGTTTCTTTTTTCTTGCTGATAAGTCGGAGTCACCTAGTGCAG”, the binding signal was 9860 fluorescence intensity (a.u.).

With “CGCCAACGTCTCTCTCCCCAGCTCGCCGCCGCCGCCTCTCCGGAGTCACCTAGTGCAG”, the binding signal was 9840 fluorescence intensity (a.u.).

In the case of “CCGTCTCGCCACCCCACACCCAAGGCCGGCGACTCCTTCGCGGAGTCACCTAGTGCAG”, the binding signal was 8340 fluorescence intensity (a.u.).

Turning to “ACTACATCCTCCCATACTTCCTGTAGTCAAATCGGGGAACCGGAGTCACCTAGTGCAG”, the binding signal is 8060 fluorescence intensity (a.u.).

As for “TTCGTTGGTTTGGGGAGGAAGAAAGGAATGGAAGCACCGACGGAGTCACCTAGTGCAG”, the binding signal was 9040 fluorescence intensity (a.u.).

For the sequence “GTTCCTGGTTTGTGTGACACGTGGGAGAGGGGAATAGTACCGGAGTCACCTAGTGCAG”, the binding signal was 9360 fluorescence intensity (a.u.).

With “TTCGCTTCTCGGTTCTCCGCATCATCTCGGTCGATCGTAACGGAGTCACCTAGTGCAG”, the binding signal was 13000 fluorescence intensity (a.u.).

On to “TGGGCTATTCCAATTGTTTTTAGTTTCCTTGTTGAGTATTCGGAGTCACCTAGTGCAG”, for which the binding signal is 10800 fluorescence intensity (a.u.).

Regarding “CTCTCGTTGTTTTTGCTCTTTTGGGTTCGCTCGGAAGATGCGGAGTCACCTAGTGCAG”, the binding signal is 8490 fluorescence intensity (a.u.).

For the sequence “TTCTCCTTTGTTTGTGACTCTGCAAGTCATTTTATCTTTGCGGAGTCACCTAGTGCAG”, the binding signal is 8550 fluorescence intensity (a.u.).

“CCACTGTTGCGAAGTCGGGTTGGTGGGTGGTTGATTGATTCGGAGTCACCTAGTGCAG”: the binding signal is 10300 fluorescence intensity (a.u.).

“TTGGGCTCTTATATGGACTCTTCTTTCAATATTGCTTATTCGGAGTCACCTAGTGCAG”: the binding signal is 10500 fluorescence intensity (a.u.).
